Consider four molecules from patent US20220169714A1 (published 2022).

Sequences of proteins named here, by UniProt entry; tags and fusion partners are left off. Residues count along the entry.
UniProt P02769, residues 25-607: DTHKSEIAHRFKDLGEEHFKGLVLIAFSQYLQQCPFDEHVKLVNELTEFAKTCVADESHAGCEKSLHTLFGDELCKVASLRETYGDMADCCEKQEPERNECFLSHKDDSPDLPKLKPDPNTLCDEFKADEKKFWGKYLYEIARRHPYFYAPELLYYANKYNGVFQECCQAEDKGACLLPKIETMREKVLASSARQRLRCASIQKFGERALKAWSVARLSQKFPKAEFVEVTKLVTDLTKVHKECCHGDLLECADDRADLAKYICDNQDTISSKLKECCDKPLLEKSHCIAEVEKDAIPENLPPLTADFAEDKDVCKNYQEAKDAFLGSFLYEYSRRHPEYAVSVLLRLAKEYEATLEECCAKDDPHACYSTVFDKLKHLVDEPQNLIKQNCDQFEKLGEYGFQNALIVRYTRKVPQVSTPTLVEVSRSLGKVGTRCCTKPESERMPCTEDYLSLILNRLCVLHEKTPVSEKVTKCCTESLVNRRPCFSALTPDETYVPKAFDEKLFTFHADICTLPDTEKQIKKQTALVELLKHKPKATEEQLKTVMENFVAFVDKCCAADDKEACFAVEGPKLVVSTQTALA

These are yes or no findings as the source states them, for the method shown. Some entries that bind do so weakly or less than the wild type.

The target of experiment [1] is BSA (bovine) (UniProt P02769). In words: ELISA on coated BSA, scFv at 10 and 2 ug/mL, anti-Myc HRP, TMB.
Experiment [2] concerns the target T1, recombinant human CXCL1 protein (human, UniProt P09341 35-107).
T1 sequence: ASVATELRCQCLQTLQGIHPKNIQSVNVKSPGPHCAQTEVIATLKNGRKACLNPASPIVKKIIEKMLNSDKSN
In words: Western blot of human CXCL1 (lanes 1 and 2) probed with Hum2401 IgG, anti-human (H+L) HRP, TMB.

The target in experiment [3] is T1, recombinant human CXCL1 protein. In words: Western blot of human CXCL1 (lanes 1 and 2) probed with HumBB2401 IgG, anti-human (H+L) HRP, TMB.
Experiment [4] shares this target. Briefly: ELISA and Western blot.
Experiment [5] has the same target. In words: ELISA on coated human CXCL1 against coated BSA, scFv at 10 and 2 ug/mL, anti-Myc HRP, TMB. As for the experimental part:
The human CxCL1 protein was coated onto 96-well, 30 ng for well at 4° C. overnight. The plate was blocked by 3% skim milk in PBS 2 h at room temperature. The plate was washed 3 times with PBST and applied anti-human CXCL1 humanized version scFv antibodies at different dilution concentration. The anti-Myc mouse monoclonal antibody with HRP conjugate antibody was applied and developed with TMB solution.

The target is the same in experiment [6]. Briefly: ELISA (CXCL1 coated at 30 ng per well, anti-Myc HRP) and Western blot.
Experiment [7] shares this target. Briefly: Western blot of human CXCL1 (lane 1) probed with HumBB2401scFv, anti-c-Myc antibody and HRP secondary, TMB.

B1: HUM2401-ScFv_1 (humanized version 2) (scFv)
scFv: QVQLVESGGGLVQPGGSLRLSCKASGYTFTSYYIYWVRQAPGKGLEWIGEIDPSHGGPTFNEKFKNRFTISRDNSKNTLYLQMNSLRAEDTAVYYCTRESGTGAMDYWGQGTLVTVSSGGGGSGGGGSGGGARGGGGSDIQMTQSPSSLSASVGDRATISCKASQSVDYDGDSYVNWYQQKPGKAPKLLIYAASNLESGIPSRFSGSGSGTDFTLTISSLQPEDFATYYCQQSSEDPWTFGQGTKVEIKR
notes: Detected through a c-Myc tag; also called HumH2401scFv; Hum HL2401_scFv
For the molecule B1, the binding result in experiment [1] was “no binding (tested: 10 ug/mL)”.

B2: Hum2401 IgG antibody (antibody, V domains shown)
VH: QVQLVESGGGLVQPGGSLRLSCKASGYTFTSYYIYWVRQAPGKGLEWIGEIDPSHGGPTFNEKFKNRFTISRDNSKNTLYLQMNSLRAEDTAVYYCTRESGTGAMDYWGQGTLVTVSS
VL: DIQMTQSPSSLSASVGDRATISCKASQSVDYDGDSYVNWYQQKPGKAPKLLIYAASNLESGIPSRFSGSGSGTDFTLTISSLQPEDFATYYCQQSSEDPWTFGQGTKVEIKR
Consider B2, for which, in experiment [2], the binding result is “binds”.

B3: HumBB2401 IgG antibody (antibody, V domains shown)
VH: QVQLVQSGAEVKKPGASVKLSCKASGYTFTSYYIYWVRQAPGQGLEWIGEIDPSHGGPTFNEKFKNRATLTVDKSKSTAYMELSSLRSEDTAVYYCTRESGTGAMDYWGQGTLVTVSS
VL: DIQMTQSPSSLSASVGDRATISCKASQSVDYDGDSYVNWYQQKPGKAPKLLIYAASNLESGIPSRFSGSGSGTDFTLTISSLQPEDFATYYCQQSSEDPWTFGQGTKVEIKR
As to B3, the binding result in experiment [3] is “binds”.

B4: HumBB2401 scFv (humanized version 1) (scFv)
scFv: QVQLVQSGAEVKKPGASVKLSCKASGYTFTSYYIYWVRQAPGQGLEWIGEIDPSHGGPTFNEKFKNRATLTVDKSKSTAYMELSSLRSEDTAVYYCTRESGTGAMDYWGQGTLVTVSSGGGGSGGGGSGGGARGGGGSDIQMTQSPSSLSASVGDRATISCKASQSVDYDGDSYVNWYQQKPGKAPKLLIYAASNLESGIPSRFSGSGSGTDFTLTISSLQPEDFATYYCQQSSEDPWTFGQGTKVEIKR
Regarding B4, the binding result in experiment [4] was “binds”; in experiment [5], “binds”; in experiment [1], “no binding (tested: 10 ug/mL)”; in experiment [6], “binds”; in experiment [7], “binds”.
